PubChem BioAssay AID540276 (National Center for Advancing Translational Sciences (NCATS), 2011)
Several values for one entry are separate records, joined by “and”; a condition that tells them apart may be missing. Equal values may be shown once. The whole screen tested about 300,000 compounds, of which about 5,400 (1.8%) were called active. This list was built around the results that the source calls inconclusive (neither active nor inactive); the mix of calls is not that of the screen. The call rests on the fitted dose curve; tested in HEK293 cells. Potencies beside an inconclusive call are fits to weak or partial responses and may not hold up.

Test: qHTS for inhibitors of binding or entry into cells for Marburg Virus
Settings: Marburg virus pseudotyped entry inhibition, cell reporter; series mostly up to 37.8 µM
Potency means the concentration at half of the fitted maximal effect.

| SMILES | Potency |
| --- | --- |
| Cc1ccccc1CNC(=O)c1ccccc1C(=O)O | inactive |
| CC12CN(C(=O)c3ccccc3Br)CC(C)(CN(C(=O)c3ccccc3Br)C1)C2=O | inactive |
| CCOC(=O)c1c(NC(=O)Cn2cnc([N+](=O)[O-])n2)sc2c1CCCC2 | inconclusive: 3.16 µM [activator, single point] |
| Cc1ccc(S(=O)(=O)/C(=C/Cl)NC(=O)c2ccccc2)cc1 | active: 7.08 µM |
| O=c1c2ccccc2nc(SCc2nc3ccccc3s2)n1CCCO | inconclusive: 0.562 µM [activator, full curve, poor fit] |
| O=C(CN(Cc1ccc(F)cc1)C(=O)c1csnn1)NCc1ccccc1 | inconclusive: 10 µM [inhibitor, partial curve, poor fit] |
| COc1ccc(C2C(C(=O)O)CC(=O)N2C2CCCCC2)cc1 (centres undefined) | inactive |
| Cc1ccccc1Nc1cc(C(=O)NC2CCCCC2)c2ccccc2n1 | inactive |
| CC(C)CSC1=NSC2=NC(=O)/C(=C\c3cccs3)C(=N)N12 | inconclusive: 25.1 µM [inhibitor, single point] |
| O=C(NN1C(=O)/C(=C/C=C/c2ccccc2)SC1=S)c1ccncc1 | inactive |
| CC(Oc1ccc(Cl)cc1)C(=O)Nc1nccs1 (centres undefined) | inactive |
| CC1(C)Cc2nc3oc4c(=S)nc[nH]c4c3cc2CO1 | inconclusive: 18.3 µM [activator, partial curve, poor fit] |
| O=C1CC(N2CCN(Cc3ccc(Cl)cc3)CC2)C(=O)N1CCc1ccccc1 (centres undefined) | inconclusive: 35.5 µM [inhibitor, single point] |
| CCN(C(=O)CSc1cccc[n+]1[O-])c1ccccc1 | inconclusive: 11.2 µM [activator, single point] |
| CC(=O)NC1=C(N(C)C2CCS(=O)(=O)C2)C(=O)c2ccccc2C1=O (centres undefined) | inconclusive: 15.8 µM [inhibitor, partial curve, poor fit] |
| COc1ccccc1C(=O)NCC1(N2CCN(C)CC2)CCCCC1 | inconclusive: 35.5 µM [inhibitor, partial curve, poor fit] |
| Cc1n[nH]c(=O)nc1NC(C)c1ccccc1 (centres undefined) | inconclusive: 5.8 µM [activator, full curve, poor fit] |
| C/C(CC(=O)Nc1ccc(Cl)cc1C(F)(F)F)=N\NC(N)=S | inactive |
| O=C(CCC(=O)NNC(=O)COc1ccc(Br)cc1)NCc1ccccc1 | inconclusive: 3.16 µM [inhibitor, partial curve, poor fit] |
| COc1ccc(C(=O)C[n+]2ccc3c(c2)nnn3-c2ccccc2)cc1 | inconclusive: 35.5 µM [inhibitor, single point] |
| CCc1c(C)nc2ccc(Br)cc2c1SCCC#N | inconclusive: 35.5 µM [inhibitor, single point] |
| COCCCNC(=O)C1CCCN(S(=O)(=O)c2ccc3c(c2)oc(=O)n3C)C1 (centres undefined) | inactive |

Ordered by number of heavy atoms (falling): 12 of the compounds above.

| SMILES | Potency |
| --- | --- |
| CC12CN(C(=O)c3ccccc3Br)CC(C)(CN(C(=O)c3ccccc3Br)C1)C2=O | inactive |
| O=C1CC(N2CCN(Cc3ccc(Cl)cc3)CC2)C(=O)N1CCc1ccccc1 (centres undefined) | inconclusive: 35.5 µM [inhibitor, single point] |
| COCCCNC(=O)C1CCCN(S(=O)(=O)c2ccc3c(c2)oc(=O)n3C)C1 (centres undefined) | inactive |
| O=C(CCC(=O)NNC(=O)COc1ccc(Br)cc1)NCc1ccccc1 | inconclusive: 3.16 µM [inhibitor, partial curve, poor fit] |
| O=c1c2ccccc2nc(SCc2nc3ccccc3s2)n1CCCO | inconclusive: 0.562 µM [activator, full curve, poor fit] |
| COc1ccccc1C(=O)NCC1(N2CCN(C)CC2)CCCCC1 | inconclusive: 35.5 µM [inhibitor, partial curve, poor fit] |
| COc1ccc(C2C(C(=O)O)CC(=O)N2C2CCCCC2)cc1 (centres undefined) | inactive |
| CC(C)CSC1=NSC2=NC(=O)/C(=C\c3cccs3)C(=N)N12 | inconclusive: 25.1 µM [inhibitor, single point] |
| CCN(C(=O)CSc1cccc[n+]1[O-])c1ccccc1 | inconclusive: 11.2 µM [activator, single point] |
| CCc1c(C)nc2ccc(Br)cc2c1SCCC#N | inconclusive: 35.5 µM [inhibitor, single point] |
| CC(Oc1ccc(Cl)cc1)C(=O)Nc1nccs1 (centres undefined) | inactive |
| Cc1n[nH]c(=O)nc1NC(C)c1ccccc1 (centres undefined) | inconclusive: 5.8 µM [activator, full curve, poor fit] |

Next part:

| SMILES | Potency |
| --- | --- |
| COc1ccc(N2CCCC2)c(NC(=O)COc2ccccc2)c1 | inconclusive: 22.4 µM [inhibitor, partial curve, poor fit] |
| COc1ccccc1/C=C/C(=O)N1CCCC1 | inconclusive: 8.91 µM [activator, partial curve] |
| CC(C)c1cc(C(=O)N2CCCC(Nc3ccc(F)cc3)C2)n[nH]1 (centres undefined) | inactive |
| CC1=Nc2cc(C(=O)NC3CCCC3)ccc2Sc2ccc(Br)cc21 | inconclusive: 22.4 µM [inhibitor, partial curve, poor fit] |
| COc1ccc(NC(=O)c2cccc(NC(=O)C(C)C)c2)c([N+](=O)[O-])c1 | inconclusive: 0.631 µM [activator, full curve, poor fit] |
| Cc1cc(OC(=O)c2cccs2)ccc1C(C)C | inactive |
| Cc1ccc(NC(=O)CSc2ccc(C(N)=O)cc2[N+](=O)[O-])cc1 | inactive |
| c1ccc(CSc2ccc(-c3ccco3)nn2)cc1 | inactive |
| CCCC1N2CC3([N+](=O)[O-])CN1CC([N+](=O)[O-])(C2)C3(C)C (centres undefined) | inconclusive: 1.26 µM [activator, single point] |
| CCOc1cc(NC(=O)CCl)c(OCC)cc1NC(C)=O | inconclusive: 7.94 µM [inhibitor, partial curve, poor fit] |
| O=C(CC(=O)N/N=C\c1c(Cl)cccc1Cl)NCc1ccccc1 | inconclusive: 0.164 µM [inhibitor, full curve, poor fit] |
| COc1cccc(OCCN2CCN(c3ncnc4c3cnn4-c3ccccc3)CC2)c1 | inconclusive: 14.6 µM [inhibitor, partial curve] |
| CCC12CN3CC(CC)(CN(C1)C3c1ccc(OC(C)C)cc1)C2=O (centres undefined) | inconclusive: 35.5 µM [inhibitor, partial curve, poor fit] |
| CCOC(=O)CC(NC(=O)Cn1nnc(-c2ccc(C(F)(F)F)cc2)n1)c1ccc(C)cc1 (centres undefined) | inactive |
| COc1ccccc1NS(=O)(=O)c1ccc(C)c(NC(=O)NC2CCCCC2)c1 | inconclusive: 2.82 µM [inhibitor, partial curve] |
| O=C(c1ccc(Oc2ccccc2)cc1)c1nc2c(n1O)CCCC2 | inactive |
| COc1ccc(N(C(=O)CNC(=O)c2ccco2)C(C(=O)NCC2CCCO2)c2ccccc2)cc1OC (centres undefined) | inactive |
| C/C(=N\NC(N)=O)C1CC(CC(C)C)C(=O)O1 (centres undefined) | inconclusive: 0.794 µM [inhibitor, full curve, poor fit] |
| COC(=O)[C@@H]1CC[C@H](C)[C@@H](c2ccc(C)cc2)N1C(=O)c1ccc(/C=N/OC[C@@H](O)COCc2ccco2)cc1 | inconclusive: 29.1 µM [inhibitor, single point] and inconclusive: 7.5 µM [inhibitor, partial curve, poor fit] |
| COC(=O)C(NC(=O)Nc1ccccc1OC)C(C)C (centres undefined) | inconclusive: 14.1 µM [activator, partial curve, poor fit] |
| CC(Sc1ccc(Cl)cc1)C(=O)NCC(c1ccco1)N1CCCCC1 (centres undefined) | inactive |
| CCc1nc2ccccc2c(C(=O)NCc2ccc(OC)cc2)c1C | inconclusive: 1.26 µM [inhibitor, partial curve, poor fit] |
